PubChem BioAssay AID720505 – Drosophila RNAi Screening Center | 2013
Assay: 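Fly regulators or components of the CRAC channel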 (primary screen). Cells: Drosophila S2R+ cells. Reagents: long dsRNA against Drosophila genes. Challenge: thapsigargin (2 µM) in calcium-free buffer to empty internal stores, then 2 mM calcium added back. Read-out: 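Fluo-4 signal in 384-well plates read on a FLIPR after thapsigargin (2 µM, calcium-free) store depletion and 2 mM calcium add-back; unnormalised mean endpoint per well; screen run twice, selected wells retested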. Reading the numbers: calcium signal and retest calcium signal: higher = more calcium entry after store depletion. Active means: 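Knock-downs counted as hits when calcium entry dropped relative to STIM1 positive and Rho1 negative controls present on each plate; roughly 1500 genes called, with reductions of differing size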. Meaning of the calls: active = called as lowering calcium entry; inactive = not called.
In all, the deposit lists about 20,000 reagents; this is an unselected part of those with a known target gene and a result. Over the whole deposit, about 2,100 (10%) got an active call. 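Raw plate signals without normalisation; calls rest on control-based scores that were not deposited; replicate 2 separates called from uncalled poorly.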 Reagents against one gene are numbered here. A plus sign joins genes that one reagent is predicted to hit. Not stated in the record: the amount of reagent, the time to read-out.

calcium signal, replicate 1 | calcium signal, replicate 2 | retest calcium signal, replicate 1 | retest calcium signal, replicate 2 | Outcome | Target gene | reagent
82.9 | 161 | – | – | inactive | Ravus | 1
111 | 104 | – | – | inactive | ric8a | 1
245 | 186 | – | – | inactive | Calx | 1
99.7 | 166 | – | – | inactive | Calx | 2
114 | 98.5 | – | – | inactive | Uvrag | 1
86 | 129 | – | – | inactive | Cpr67Fa1 | 1
125 | 153 | – | – | inactive | Wdr92 | 1
227 | 110 | – | – | inactive | E(spl)m7-HLH | 1
73.4 | 146 | – | – | active | CG12093 | 1
89.8 | 94.4 | – | – | inactive | CG6216 | 1
121 | 73.2 | – | – | inactive | CG5280 | 1
121 | 95.5 | – | – | inactive | CG5280 | 2
153 | 86.4 | – | – | inactive | CG17593 | 1
164 | 89.5 | – | – | inactive | Sodh2 | 1
96.8 | 90.2 | – | – | inactive | GlcAT-S | 1
82.5 | 81.1 | – | – | inactive | CG18469 | 1
115 | 185 | – | – | inactive | CG34041 | 1
183 | 148 | – | – | inactive | Atg18b | 1
153 | 77.9 | – | – | inactive | Shark | 1
179 | 147 | – | – | inactive | CG15547 | 1
146 | 109 | – | – | inactive | CG17375 | 1
98.8 | 117 | – | – | inactive | CG1979 | 1
109 | 58.9 | – | – | inactive | TrpA1 | 1
110 | 136 | – | – | inactive | ms(3)76Cc | 1
117 | 126 | – | – | inactive | ms(3)76Cc | 2
32.2 | 105 | – | – | active | Ice1 | 1
227 | 170 | – | – | inactive | CG17195 | 1
87.4 | 99.1 | – | – | inactive | LanB2 | 1
231 | 99.7 | – | – | inactive | CG34337 | 1
95.8 | 119 | – | – | inactive | RNaseP:RNA | 1
105 | 88.6 | – | – | inactive | CG15211 | 1
111 | 166 | – | – | inactive | rk | 1
69.1 | 113 | – | – | active | E(z) | 1
166 | 112 | – | – | inactive | CG14613 | 1
79.8 | 107 | – | – | inactive | CG5273 | 1
131 | 166 | 124 | 129 | inactive | mRpL43 | 1
84.2 | 154 | – | – | inactive | mRpL43 | 2
118 | 82.3 | – | – | inactive | Rsph1 | 1
91.5 | 88.5 | – | – | inactive | CG9286 | 1
151 | 106 | – | – | inactive | CrzR | 1
122 | 105 | – | – | inactive | CrzR | 2
154 | 116 | – | – | inactive | CG9436 | 1
93.7 | 169 | – | – | inactive | ebi | 1
107 | 142 | – | – | inactive | Ugt35B1 | 1
108 | 194 | – | – | inactive | CG16787 | 1
73.6 | 102 | – | – | active | CG10226 | 1
148 | 152 | – | – | inactive | mtsh | 1
90.4 | 53 | – | – | inactive | CG14835 | 1
97.7 | 146 | – | – | inactive | CG13154 | 1
82.5 | 83 | – | – | inactive | Fit1 | 1
159 | 87.6 | 91.1 | 77.1 | inactive | CG1636 | 1
79.1 | 118 | – | – | inactive | CG13323 | 1
95.3 | 139 | – | – | inactive | SP1029 | 1
69.3 | 113 | – | – | active | CG5172 | 1
113 | 123 | – | – | inactive | Dip-B | 1
172 | 117 | – | – | inactive | dmrt93B | 1
75.5 | 208 | – | – | inactive | Grl36b | 1
123 | 95.3 | – | – | inactive | CG14270 | 1
142 | 171 | – | – | inactive | Adgf-C | 1
128 | 73.1 | – | – | inactive | Naa20B | 1
101 | 88.6 | – | – | inactive | CG14186 | 1
120 | 200 | – | – | inactive | Cpr65Au | 1
99.5 | 157 | – | – | inactive | CG5895 | 1
68.7 | 108 | – | – | active | CG34284 | 1
114 | 93.7 | – | – | inactive | CG13306 | 1
126 | 78.6 | – | – | inactive | spo | 1
176 | 93.4 | – | – | inactive | CG18764 | 1
109 | 173 | – | – | inactive | CG32376 | 1
130 | 158 | – | – | inactive | Hsl | 1
75.3 | 84.4 | – | – | inactive | Polr2E | 1
143 | 146 | – | – | inactive | ND-51L1 | 1
82.7 | 45.9 | – | – | inactive | Prim1 | 1
162 | 115 | – | – | inactive | CG31373 | 1
158 | 76 | – | – | inactive | Cyp28d2 | 1
183 | 169 | – | – | inactive | yip2 | 1
68.7 | 186 | – | – | active | CG34331 | 1
94.4 | 111 | – | – | inactive | CG10898 | 1
41.8 | 96.3 | – | – | active | CG33937 (retired record) | 1
140 | 106 | – | – | inactive | CG31975 + ovm | 1
131 | 140 | – | – | inactive | Ets96B | 1
111 | 136 | – | – | inactive | CG4250 | 1
64.8 | 57.8 | – | – | active | GATAd | 1
240 | 175 | – | – | inactive | Mrp5 | 1
164 | 210 | – | – | inactive | Mrp5 | 2
